# The whole screen tested about 140,000 compounds, of which about 4,300 (3.1%) were called active. Inconclusive means that the source gave no clear call. Such entries were picked first, then a sample of the others.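 The calls were made as follows: active = readout at or below -70, meaning at least 70% loss of cells showing the perinucleolar compartment, a nuclear body marking cancer cells; inconclusive = readout between -30 and a set limit; inactive = the rest.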
# Assay: High Content Assay for Compounds that inhibit the Assembly of the Perinucleolar Compartment;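 also: plate controls were DMSO wells for no effect and camptothecin positive control wells for full effect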
# Conditions: PC3M PTB-GFP, PNC prevalence imaging, 16 h; at 10 µM; stronger effect = lower value
# Summary of the method: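 Compounds are pinned in duplicate onto adhered PC3M cells stably expressing GFP-tagged PTB and incubated 16 h at 37 C. Cells are then fixed, nuclei stained with Hoechst, and PNC-positive cells counted.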
row,Structure (SMILES),"activity change (PNC), negative = inhibition"
1,CCC(C)NC(=O)COC(=O)c1cc([N+](=O)[O-])ccc1Sc1nc(C)cs1 (configuration not stated),inconclusive: -46.7%
2,CCc1cccc(CC)c1NC(=O)COC(=O)CC1c2ccccc2CCN1S(=O)(=O)c1ccccc1 (configuration not stated),inactive: -13.7%
3,CC(C)(C)NC(=O)CSc1nncn1NCc1cccc2ccccc12,inactive: 43.9%
4,CCOCCCNC(=O)CS(=O)(=O)Cc1nc(-c2cccc(OC)c2)oc1C,inconclusive: -73.1%
5,CCOC(=O)c1c(C)oc2ccc(OC(=O)c3cccs3)cc12,inactive: 79.5%
6,CCC(C)(C)n1nnnc1C(c1ccncc1)N1CCC(C)CC1 (configuration not stated),active: -119%
7,COc1cc2c(cc1OC)CN(C(=O)CCCN1C(=O)c3ccccc3C1=O)CC2,inconclusive: -51.8%
8,Cc1ccc(S(=O)(=O)Nc2ccc(-c3nc4ccc(C)cc4s3)cc2)cc1,inconclusive: -44.7%
9,CC(C)COc1ccc(-c2cc(C(=O)NN)[nH]n2)cc1,inactive: 6.21%
10,CCOc1ccc(-n2c(SCC(=O)NCc3ccco3)nnc2-c2c[nH]c3ccccc23)cc1,inconclusive: -36.4%
11,Cc1ccc(-n2c(C)cc(C(=S)N3CCOCC3)c2C)cc1C,inactive: 39.1%
12,CCCCCC/C(=N\NS(C)(=O)=O)c1ccccc1,inconclusive: -33.5%
13,CCOC(=O)N1CCC2(CC1)C(C#N)=C(N)OC1=C2C(=O)CC(C)(C)C1,inconclusive: -36.2%
14,COc1ccc(/C=N/Nc2nc(N3CCCC3)nc(N3CCCC3)n2)cc1,inconclusive: -32.2%
15,Cc1ccc(F)c(NC(=O)CCc2ccccc2)c1,inconclusive: -34.9%
16,CCOC(=O)Cn1c(=O)sc2ccccc21,inconclusive: -35.9%
17,CSc1nnc(-c2cnccn2)n1Cc1ccccc1,inconclusive: -61.6%
18,CNc1ccccc1C(C)(C)c1cc(-c2ccco2)n[nH]1,inactive: 12%
19,N#Cc1cc([N+](=O)[O-])ccc1N1CCCC1,inactive: 34.4%
20,CCOc1ccc(OCC)c(NS(=O)(=O)c2ccc3c(c2)CCN3C(=O)C2CCC2)c1,active: -85.2%
21,Cc1nnc(SCc2c(Cl)cccc2Cl)s1,inconclusive: -45.7%
22,O=C(Nc1ccccc1)N1CCCc2ccccc21,active: -100%
23,CCOc1ccc(C(CC(=O)O)NC(=O)C2c3ccccc3Oc3ccccc32)cc1 (configuration not stated),inconclusive: -35.6%

row,Structure (SMILES),"activity change (PNC), negative = inhibition"
1,CCOc1ccccc1Cn1c(=O)oc2ccc(C)cc21,inconclusive: -31.4%
2,CCOC(=O)c1ccc(NC(=O)Cn2nnc(-c3ccc(F)cc3)n2)cc1,inactive: 19.4%
3,C=CCn1c(O)c(N=NC(=O)OC(C)(C)C)c2ccccc21,active: -100%
4,CCOC(=O)c1cc2nc(Nc3ccc(OC)cc3)sc2s1,inconclusive: -30.6%
5,COc1ccc(-c2cc(C(F)(F)F)nc(-n3cc(Cl)cn3)n2)cc1,inconclusive: -49.2%
6,Cc1nc2cc(C(F)(F)F)ccc2n1C1CCN(C(=O)N2CCOCC2)CC1,inconclusive: -30.6%
7,N#C/C(=C/c1ccc(-c2ccc(Br)cc2)o1)C(=O)NC1CCCCC1,inactive: 40.7%
8,O=C(COC(=O)c1cc(S(=O)(=O)N2CCOCC2)ccc1Cl)Nc1ccc2c(c1)OCO2,inactive: -24.1%
9,Cc1ccc(N(CC(=O)Nc2ccc(F)cc2)S(=O)(=O)N2CCCC2)cc1,inconclusive: -39.3%
10,O=C(NC(=S)N1CCN(c2ccc([N+](=O)[O-])cc2)CC1)c1ccc(F)cc1,inconclusive: -40.9%
11,O=C1C(=O)N(CNc2cccnc2)c2ccccc21,inconclusive: -77.3%
12,CCC(C)c1ccc(O)c(/C=N/O)c1 (configuration not stated),inconclusive: -38.9%
13,O=C(CNS(=O)(=O)c1ccc(Br)s1)N1CCCC1,inconclusive: -45%
14,Cc1cc(C)n(-c2ccc(OCC(=O)O)nn2)n1,active: -115%
15,Cc1ccc2nc(C3CCN(CC(=O)N4CCCCCC4)CC3)[nH]c2c1,inconclusive: -46.2%
16,CCN(CC)c1ccc(NC(=O)C2CCCN(S(=O)(=O)c3cnc[nH]3)C2)c(C)c1 (configuration not stated),inconclusive: -40.3%
17,COc1ccc(C)cc1NC(=O)Nc1ccccc1,inactive: 26.1%
18,CCOc1ccccc1NC(=S)/C(=C(\[O-])c1ccc2c(c1)OCCO2)[n+]1ccc(CC)cc1,inactive: 35.6%
19,O=S(=O)(NC1=NCCCCCC1)c1cccs1,inactive: 15.7%
20,COc1ccccc1N1CCN(C(=O)CSc2nc(-c3ccco3)cc(C(F)(F)F)n2)CC1,inactive: -15.4%
21,O=C(CCNC(=O)c1ccccc1Cl)Nc1ccc2c(c1)OCO2,inactive: 10.6%
22,O=[N+]([O-])c1ccc(/C=N/NC(=S)Nc2ccccc2F)o1,inconclusive: -32%
23,CCCCOC(=O)c1ccc(NC(=S)NC(=O)c2c(Cl)cnn2CC)cc1,inactive: 47.2%

row,Structure (SMILES),"activity change (PNC), negative = inhibition"
1,NNc1nc(-c2ccccc2)cc(-c2ccccc2O)n1,active: -106%
2,Oc1ccc(-c2nc(-c3ccc(O)c(O)c3)cs2)cc1,active: -101%
3,CCNc1nc(NCC)nc(Oc2ccc(OCC)nn2)n1,inconclusive: -60.4%
4,CCOc1ccccc1C1C(C(=O)OC)=CN(C)C=C1C(=O)OC,inactive: 3.14%
5,COc1ccc(C(=O)C[n+]2ccccc2C)cc1,inactive: -20.1%
6,c1ccc2[nH]c(CSc3nnc(-c4ccncc4)o3)nc2c1,inconclusive: -68.1%
7,Cc1cc(C)n2nc(C(=O)Nc3ccccc3N3CCOCC3)nc2n1,inconclusive: -67.4%
8,CN1CCN(c2oc(-c3cccs3)nc2S(=O)(=O)c2ccccc2)CC1,inconclusive: -46.5%
9,COc1ccc(CN2C(=O)CCC2(C)C(=O)NCc2cccnc2)c(OC)c1 (configuration not stated),inconclusive: -50.9%
10,CCOC(=O)c1cc(N)cc([N+](=O)[O-])c1,inconclusive: -45.1%
11,Cc1cc[n+]2cc(-c3cccc([N+](=O)[O-])c3)c(-c3cccc([N+](=O)[O-])c3)cc2c1,inactive: 12.8%
12,Cc1cccc(N2CCN(C(=S)c3ccc(-c4ccccc4[N+](=O)[O-])o3)CC2)c1,inactive: 12.3%
13,COc1ccc(-n2c(CNC(=O)c3ccc(S(=O)(=O)N4CCCC4)cc3)n[nH]c2=S)cc1,inconclusive: -35.1%
14,Cc1ccc(S(=O)(=O)CCC(=O)OCc2ccc(Cl)c(Cl)c2)cc1,active: -112%
15,CCOC(=O)c1ccc(NC(=O)CN2C(=O)CNC2=O)cc1,inconclusive: -55.5%
16,Cc1cc(C)nc(SCc2nnc(SCC(=O)Nc3cc(C(F)(F)F)ccc3Cl)o2)n1,inactive: 58.8%
17,COC(=O)c1[nH]c2cccc(Cl)c2c1NC(=O)CN(C)C1CCCCC1,inconclusive: -50.2%
18,Cc1ccc(-n2nnnc2SC(C)C(=O)NCC(=O)Nc2ccc(F)c(F)c2F)c(C)c1 (configuration not stated),inconclusive: -49.2%
19,CCOc1ccc2nc(C(C)O)[nH]c2c1 (configuration not stated),inconclusive: -51.4%
20,COc1ccc(/C=C/c2nnc(NC(=O)COc3ccc(C)cc3)s2)cc1,inactive: -10.2%
21,Nc1ccc(O)cc1C(=O)OCC(=O)c1ccc(C2CCCCC2)cc1,inconclusive: -46.2%
22,O=C(CN1CCOCC1)N1CCCc2c1c(=O)oc1ccc(OCc3ccccc3)cc21,active: -90.3%
23,Cc1ccc(C(=O)NCCc2ccncc2)cc1,inactive: -12.7%

# As entered above.
# Under activity change (PNC), negative = inhibition, O=C(CN1CCOCC1)N1CCCc2c1c(=O)oc1ccc(OCc3ccccc3)cc21 reads active: -90.3%
# Under activity change (PNC), negative = inhibition, COc1ccc(/C=C/c2nnc(NC(=O)COc3ccc(C)cc3)s2)cc1 reads inactive: -10.2%
# Under activity change (PNC), negative = inhibition, CCOC(=O)c1cc(N)cc([N+](=O)[O-])c1 reads inconclusive: -45.1%

# (next part)

row,Structure (SMILES),"activity change (PNC), negative = inhibition"
1,c1ccc2c(c1)CCN(c1ncnc3c1[nH]c1ccccc13)C2,inconclusive: -69.3%
2,CCCCOc1ccc(C(=O)N/C(=C/C=C/c2ccccc2)C(=O)N2CCOCC2)cc1,inactive: -12.2%
3,C/C(=C\C(=O)c1ccccc1)Nc1ccc(O)cc1,inactive: -25%
4,CCOC(=O)c1c(-c2ccccc2)csc1NC(=O)c1cc2ccccc2oc1=O,inactive: 8.07%
5,Cc1nn(-c2ccc(Cl)cc2)c2sc(C(=O)N3CCN(c4ccccn4)CC3)cc12,inconclusive: -56.2%
6,CCOc1ccccc1N(CC(=O)OC)S(C)(=O)=O,active: -106%
7,Cc1ccc(C(=O)c2cnc3ccccc3c2-c2ccccc2)cc1,inactive: 68.3%
8,CN1CCN(C(=O)c2ccc(Cl)c(S(=O)(=O)N3CCCCC3)c2)CC1,inconclusive: -35.9%
9,Clc1ccc(OCCSc2ncccn2)cc1,inconclusive: -38.5%
10,O=C(c1ccc(F)cc1)N1CCN(c2cc(N3CCCCC3)c(F)cc2[N+](=O)[O-])CC1,inactive: 41.1%
11,CCn1cc(CNC(=O)c2cc(Cl)ccc2OC)c(C)n1,inconclusive: -63%
12,CCOc1cc(/C=C\c2[nH]c(=O)[nH]c(=O)c2[N+](=O)[O-])ccc1OC(C)CC (configuration not stated),inconclusive: -34.7%
13,Cc1nn(-c2ccccc2)c2sc(C(=O)O)cc12,inconclusive: -65.5%
14,COc1ccc(Cc2nc(C(=O)Nc3ccc(F)cc3)cs2)cc1,inconclusive: -32.6%
15,CC(=O)NC(C)c1nc2ccccc2n1C(C)C (configuration not stated),active: -119%
16,CNc1oc(-c2ccc(Cl)cc2)nc1P(=O)(c1ccccc1)c1ccccc1,inconclusive: -38.5%
17,Cn1c(-n2c(CCN3C(=O)c4ccccc4C3=O)nc3ccccc3c2=O)nc2ccccc21,inactive: 5.82%
18,COc1ccc(OC)c(N/C=C2/CCCCC2=O)c1,inactive: 16.9%
19,Cc1cc(C)c2c(n1)nn1c(NCCCn3ccnc3)cc(C)nc21,inconclusive: -73.1%
20,COC(=O)c1ccc(CSc2nnc(-c3ccc4c(c3)OCO4)n2-c2ccccc2)o1,inactive: -4.48%
21,O=C(/C=C/c1cccs1)c1ccc(Br)cc1,inactive: 0.631%
22,CCOC(=O)c1c(NC(=S)Nc2ccccc2)sc2c1CCN(CCc1ccccc1)C2,inactive: 6.4%
23,COc1ccc(NC(=O)N2CCCC2C(=O)Nc2ccc(C)cc2)cc1 (configuration not stated),inconclusive: -32.8%
